Two molecules from patent publication US20050181997A1 can be followed below.

Chains of the proteins cited; added tags and fusions are not shown. Residues count along the entry.
UniProt P01012, residues 2-386: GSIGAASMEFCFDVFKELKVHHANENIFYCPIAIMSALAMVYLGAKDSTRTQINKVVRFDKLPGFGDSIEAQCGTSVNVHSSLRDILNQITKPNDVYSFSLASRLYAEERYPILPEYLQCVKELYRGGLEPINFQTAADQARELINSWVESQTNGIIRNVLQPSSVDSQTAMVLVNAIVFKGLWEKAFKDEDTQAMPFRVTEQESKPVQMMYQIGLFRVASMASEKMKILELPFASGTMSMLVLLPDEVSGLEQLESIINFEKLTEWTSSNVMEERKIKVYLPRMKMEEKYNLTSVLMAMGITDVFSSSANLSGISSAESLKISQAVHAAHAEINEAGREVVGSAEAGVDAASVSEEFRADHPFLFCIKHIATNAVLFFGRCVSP

Test [1] has as its target ovalbumin (immobilised: ovalbumin-Sepharose / ovalbumin gel affinity column, Sigma) (UniProt P01012). The test can be described thus: affinity capture on ovalbumin-Sepharose, elution with 200 mM trehalose.
The target is the same in test [2]. Put plainly: affinity chromatography on ovalbumin gel, elution with 200 mM trehalose.

Results are given in words; binding and its absence hold for the method and conditions named. Some binding calls cover weakened binding; strength is not graded here.

B1: recombinant Pv-FRIL from transgenic tobacco (product of pM-SpPv-FRIL) (protein)
chain: AQSLSFNFTKFDLDQKDLIFQGDATSTNNVLQLTKLDSGGNPVGASVGRVLFSAPFHLWENSMAVSSFETNLTIQISTPHPYYAADGFAFFLAPHDTVIPPNSWGKFLGLYSNVFRNSPTSENQSFGDVNTDSRVVAVEFDTFPNANIDPNYRHIGIDVNSIKSKETARWEWQNGKTATARISYNSASKKSTVTTFYPGMEVVALSHDVDLHAELPEWVRVGLSASTGEEKQKNTIISWSFTSSLKNNEVKEPKEDMYIANVVRSYTWINDVLSYISNK
For the molecule B1, the binding entry in test [1] is recorded as “binds”.

B2: YamFRIL from Sphenostylis stenocarpa (yam bean) (protein)
chain: AQSVSFTFTKFDSDQKDLMFQGHTISSSNVIQLTKLDSNGNPVSTSVGRVLYSAPLRLWESSTVVSTFETTFTFQISTPYTSPPGDGLAFFLAPYDTVIPPNSAGNLLGLFPNLNALRNSTTSKETTIDVNAASNNVVAVEFDTYPNDNIGDPRYKHIGIDVNSIRSKATVAWDWQNGKTATAHISYNSASKRLSVTTFYPGGKAVSLSHDVELTQVLPQWIRVGFSASTGLEK
For B2, the binding entry in test [2] was “binds”.
